The subject of the assay is C3H/He mice, Gardner lymphosarcoma 6C3HED ip, survival T/C. Put plainly: NCI In Vivo Anticancer Drug Screen. Data for tumor model Lymphosarcoma Gardner 6C3HED (intraperitoneal) in C3H/He mice. The settings on record: T/C endpoint: survival time, mean or median, schedule: Q01DX010 (ip), vehicle: saline, higher T/C = longer survival. How it is done:
The antitumor activity of compounds was measured in mice bearing transplantable tumors. Survival or tumor size were measured and the results are expressed as the measurement made in the treated group (T) divided by the measurement made in the vehicle treated control group (C). The tumor model used in this assay is Lymphosarcoma Gardner 6C3HED (intraperitoneal) in C3H/He mice

SMILES strings stand for the structures. The list does not hold the whole screen: it gathers some chemical classes. Other doses and runs of a compound may be missing. T/C is the treated group as % of the vehicle group. Where survival is the endpoint, this PubChem deposit counts one and a half times the control or more as active, and values a quarter to a half above the control carry no call in these data; other NCI protocols may use other cut-offs. Some entries show no survivor count and are marked so; the dose need not have been tolerated. Schedule codes are those of the source, taken here to give the interval after Q, in days (D) or hours (H), and the number of doses after X. Some doses were run more than once; the values are given in rising order.

For the molecule `NC1CCCCC1.NP(=O)(O)N(CCCl)CCCl`, the T/C (dose: 15.6 mg/kg/injection) is 147 % of control [survivor count not shown], the T/C (dose: 31.3 mg/kg/injection) was 271 % of control [survivor count not shown] and the T/C (dose: 62.5 mg/kg/injection) was 128 % of control [survivor count not shown].

As to `NC(Cc1ccccc1N(CCCl)CCCl)C(=O)O` (configuration not stated), the T/C by setting is: (dose: 0.25 mg/kg/injection) 132 [survivor count not shown] and 157 % of control [survivor count not shown]; (dose: 0.5 mg/kg/injection) 196 [survivor count not shown] and 300 % of control [survivor count not shown]; (dose: 1.0 mg/kg/injection) 178 [survivor count not shown] and 207 % of control [survivor count not shown].

Consider `ClCCN(CCCl)Cc1nc2ccccc2[nH]1`, for which the T/C (dose: 2.5 mg/kg/injection) is 113 % of control [survivor count not shown], the T/C (dose: 5.0 mg/kg/injection) was 166 % of control [survivor count not shown] and the T/C (dose: 10.0 mg/kg/injection) is 103 % of control [survivor count not shown].

For the molecule `NC(Cc1cccc(N(CCCl)CCCl)c1)C(=O)O` (configuration not stated), the T/C by setting is: (dose: 0.63 mg/kg/injection) 123 [survivor count not shown] and 212 % of control [survivor count not shown]; (dose: 1.25 mg/kg/injection) 138 [survivor count not shown] and 225 % of control [survivor count not shown]; (dose: 2.5 mg/kg/injection) 87 [survivor count not shown] and 103 % of control [survivor count not shown].

The values are drawn from PubChem BioAssay AID230 (DTP/NCI, 2004).
